Experimental data from PubChem BioAssay AID2685 (National Center for Advancing Translational Sciences (NCATS), 2010).
This is one part of the list. The main result of the screen is listed elsewhere. These columns were measured beside it and carry no call. The list favours compounds with an active or inconclusive main result. The note in brackets gives the kind of curve behind each potency; many fits are weak.

Test: qHTS Assay for Lipid Storage Modulators in Drosophila S3 Cells;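 for cell number change: cells counted by Cell Tracker Red CMTPX staining in the red channel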
Settings: BODIPY lipid droplet fluorescence, 18-24 h; for cell number change: measured here: cell count max response, cells fed with added oleic acid
Outline: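 Drosophila S3 cells loaded with oleic acid (400 uM, as added) and compounds at several concentrations; lipid droplets imaged by 488-nm laser-scanning cytometry, 500–530 nm intensity and object ratio to cell channel. Percent activity normalized to 20 uM Triacsin C.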

[1] = measured here: lipid fluorescence (Fed channel) AC50, cells fed with added oleic acid
[2] = measured here: cell number channel AC50, cells fed with added oleic acid

CCCc1nc2c(=O)n(C)c(=O)[nH]c2n1C
cell number change: -9.86% | AC50 [1]: 1.64 µM [falling, partial curve]

CC(C)c1nc2oc3ccccc3c(=O)c2c(=O)n1-c1ccccc1
cell number change: -2.45%

COc1ccc(S(=O)(=O)Nc2ccccc2C(=O)NCc2ccco2)cc1Br
cell number change: -13.7%

Cc1cc(C)n(C2CCCCC2OC(=O)c2ccccc2)n1 (configuration not stated)
cell number change: 33.6% | AC50 [2]: 23.1 µM [rising, single point] | AC50 [1]: 16.4 µM [rising, partial curve]

NC(=O)C1CCN(C(=O)c2ccc(NS(=O)(=O)c3ccc(F)c(F)c3)cc2)CC1
cell number change: -1.08% | AC50 [1]: 6.51 µM [rising, partial curve, poor fit]

COc1cc(C)nc2nc(SCc3ccccc3)nn12
cell number change: 34.2% | AC50 [2]: 29.1 µM [rising, single point] | AC50 [1]: 29.1 µM [rising, single point]

O=C(Nc1ccc(O)cc1)c1ccc2c(c1)C(=O)N(Cc1ccccc1)C2=O
cell number change: -47.5% | AC50 [2]: 29.1 µM [falling, single point] | AC50 [1]: 1.84 µM [falling, partial curve]

COc1ccc(NC(=O)CSc2nnc(CNC(=O)c3ccco3)o2)c(OC)c1
cell number change: 33.9% | AC50 [2]: 29.1 µM [rising, single point]

CCS(=O)(=O)N1Cc2ccccc2CC1C(=O)NC(C)C12CC3CC(CC(C3)C1)C2 (configuration not stated)
AC50 [1]: 25.9 µM [falling, partial curve]

COc1ccccc1N1CCN(C(=O)NCc2ccc(Cl)cc2)CC1
cell number change: -7.66% | AC50 [1]: 29.1 µM [rising, partial curve]

O=C(CCCOC(=O)c1ccc(O)cc1O)c1ccc(Br)cc1
cell number change: -50.7% | AC50 [2]: 32.6 µM [falling, single point]

COc1cccc(CNC(=O)C(CCSC)NS(=O)(=O)c2ccc3c(c2)oc(=O)n3C)c1 (configuration not stated)
AC50 [1]: 0.651 µM [falling, single point]

Cc1cc(NC(=O)CC#N)n(-c2ccccc2)n1
cell number change: -32.2%

Cc1ccc(S(=O)(=O)N(CC(=O)Nc2ccc(F)cc2)C(=O)N2CCN(C)CC2)cc1
cell number change: 4.61% | AC50 [1]: 29.1 µM [falling, single point]

CCN1CCCC1CNS(=O)(=O)c1ccc(F)c(Cl)c1 (configuration not stated)
cell number change: 16.8% | AC50 [1]: 0.58 µM [rising, single point]

CCOC(=O)C1=C(CSc2nccn2C)NC(=O)NC1c1cc(C)ccc1C (configuration not stated)
cell number change: 54.3% | AC50 [2]: 4.61 µM [rising, full curve] | AC50 [1]: 5.8 µM [rising, full curve]

CCN(CC(=O)Nc1cc(S(=O)(=O)N2CCOCC2)ccc1Cl)Cc1ccccc1
cell number change: -23.4% | AC50 [1]: 4.61 µM [falling, partial curve]

COc1ccc2c(c1)[C@H]1[C@H](CO2)[C@H](c2ccccc2)[C@]2(C)C(=O)N[C@H](C)C(=O)N12
cell number change: -3.05% | AC50 [1]: 25.9 µM [rising, single point]

CC(C)C(c1nnnn1C1CCCC1)N(C)C1CCCCC1 (configuration not stated)
AC50 [1]: 29.1 µM [falling, single point]

COc1ccc(CNCc2c(O)c(Cl)cc3c(C)c(C)c(=O)oc23)c(OC)c1
cell number change: -7.04% | AC50 [1]: 20.6 µM [rising, single point]

Cc1ccc(C2=NN(C(=O)c3ccccc3F)C(c3ccccc3F)C2)cc1 (configuration not stated)
cell number change: 116% | AC50 [2]: 23.1 µM [rising, partial curve] | AC50 [1]: 29.1 µM [rising, single point]

COc1ccc([N+](=O)[O-])cc1N(CC(=O)N1CCCCC1)S(C)(=O)=O
cell number change: -27% | AC50 [1]: 23.1 µM [falling, partial curve, poor fit]

Cn1c(C(=O)N2CCCC(Nc3ccc(F)cc3)C2)cc2ccccc21 (configuration not stated)
AC50 [1]: 4.11 µM [rising, partial curve]

CN(C)CCCNC(=S)N1CCN(c2nc(-c3ccccc3)cs2)CC1
cell number change: -2.91%

Cc1cccc(OCC(=O)NCCNC(=O)c2ccncc2)c1
cell number change: -11.4%

CCOC(=O)c1cc(C(C)C)sc1NC(=O)COC(=O)CCS(=O)(=O)c1ccccc1
cell number change: 48.7% | AC50 [2]: 7.31 µM [rising, partial curve] | AC50 [1]: 3.66 µM [rising, single point]

CCc1nnc(NC(=O)CC23CC4CC(CC(C4)C2)C3)s1
cell number change: -2.59% | AC50 [1]: 0.461 µM [falling, single point]

CCCN(C(=O)COC(=O)CCOc1ccccc1C)c1c(N)n(Cc2ccccc2)c(=O)[nH]c1=O
cell number change: -13%

CC1CN(C(=O)COC(=O)c2ccc(O)cc2)CC(C)O1 (configuration not stated)
cell number change: 9.46%

O=C1CC(c2ccc(F)cc2)Cc2nc(NCC3CCCO3)ncc21 (configuration not stated)
cell number change: 4.73% | AC50 [1]: 18.4 µM [rising, single point]

FC(F)(F)c1ccccc1CN1CCCC(N2CCN(c3ccccc3)CC2)C1 (configuration not stated)
cell number change: -13.2% | AC50 [1]: 5.8 µM [rising, full curve]

Cc1c(C(=O)N2C[C@@H](C)O[C@@H](C)C2)oc2c(F)cccc12
cell number change: -13.1% | AC50 [1]: 0.58 µM [falling, single point]

O=c1[nH]c(SCc2cccc(F)c2)nc2c1CCCC2
AC50 [2]: 0.103 µM [rising, full curve, poor fit] | AC50 [1]: 0.116 µM [rising, full curve, poor fit]

COc1ccccc1OCC(O)Cn1c(=N)n(CCN2CCCCC2)c2ccccc21 (configuration not stated)
AC50 [2]: 6.51 µM [rising, single point]

CCOC(=O)N1CCC(NC(=O)CS(=O)Cc2nc(-c3ccc(Cl)cc3)oc2C)CC1 (configuration not stated)
cell number change: -12.2% | AC50 [1]: 18.4 µM [falling, partial curve, poor fit]

COc1ccc(/C=N/Nc2ncc(C(F)(F)F)cc2Cl)cc1OC
cell number change: 45.2% | AC50 [2]: 4.11 µM [rising, full curve] | AC50 [1]: 6.51 µM [rising, single point]

O=C(Nc1nnc(-c2cccs2)o1)c1ccc(S(=O)(=O)N2CCOCC2)cc1
cell number change: 0.104% | AC50 [2]: 2.06 µM [rising, single point] | AC50 [1]: 1.64 µM [rising, partial curve]

CCN(CC)S(=O)(=O)c1cccc(C(=O)Nc2ccc(C#N)cc2)c1
cell number change: -7.51% | AC50 [1]: 0.0291 µM [rising, full curve, poor fit]
